{"source": "PubChem BioAssay AID901", "about": "(National Center for Advancing Translational Sciences (NCATS), 2007)", "note": "The list shows a part of the results. The main result of the screen is listed elsewhere. These columns were measured beside it and carry no call. Most of these compounds were active or inconclusive in the main read-out, so they are no random draw. Words in brackets tell the shape of the fitted curve; partial curves, single points and poor fits give uncertain potencies."}
{"assay": "qHTS Assay for Identifying the Cell-Membrane Permeable IMPase Inhibitors", "conditions": "CHO-M1 cells, IP1 accumulation, HTRF TR-FRET ratio; measured here: donor channel 620 nm AC50"}
{"smiles": "Cc1cc(C)c2nc(-c3ccccn3)cc(C(=O)NCc3ccco3)c2c1", "AC50": "6.31 µM [falling, full curve]"}
{"smiles": "Nn1c(SCC(=O)Nc2ccccc2F)nnc1-c1cccnc1", "AC50": "0.794 µM [rising, full curve, poor fit]"}
{"smiles": "CCOC(=O)CSc1cc(=O)n(CC)c2ccccc12", "AC50": "12.6 µM [rising, partial curve]"}
{"smiles": "CCC(Sc1ccc(C(=O)O)cc1)C(=O)O", "note": "(stereo unspecified)", "AC50": "0.0631 µM [falling, full curve, poor fit]"}
{"smiles": "COCCCN1C(=O)C(=O)/C(=C(/O)c2ccc3c(c2)CC(C)O3)C1c1cccnc1", "note": "(stereo unspecified)", "AC50": "12.6 µM [rising, partial curve]"}
{"smiles": "O=C(O)C1CCCN1C(=O)Oc1ccccc1", "note": "(stereo unspecified)", "AC50": "0.0501 µM [falling, full curve]"}
{"smiles": "Cc1nc(S/C(=C/c2ccc(-c3cccc(Cl)c3)o2)C(=O)O)n[nH]1", "AC50": "20 µM [falling, partial curve]"}
{"smiles": "CCCn1nnc(NC(=O)COc2ccc(Cl)cc2)n1", "AC50": "1.26 µM [rising, full curve, poor fit]"}
{"smiles": "CC1Cc2cc(/C(O)=C3\\C(=O)C(=O)N(CCN4CCOCC4)C3c3ccccc3F)ccc2O1", "note": "(stereo unspecified)", "AC50": "12.6 µM [rising, partial curve]"}
{"smiles": "CCc1ccc(CCC(=O)Nc2ccc(C(C)=O)cc2)o1", "AC50": "0.501 µM [falling, full curve]"}
{"smiles": "Cc1ccc(CNC(=O)CCCn2c(=O)c3ccccc3n(Cc3ccccc3Cl)c2=O)cc1", "AC50": "25.1 µM [rising, partial curve]"}
{"smiles": "CCCCOc1ccc(NC(=O)c2cc3c(n(-c4ccc(Cl)cc4)c2=O)CCCC3=O)cc1", "AC50": "0.0251 µM [rising, full curve]"}
{"smiles": "CCOC(=O)N1CCC(NC(=O)CN2C(=O)CSc3ncccc32)CC1", "AC50": "3.98 µM [falling, partial curve, poor fit]"}
{"smiles": "O=C(Nc1nc2ccccc2n1CCOc1ccccc1Cl)c1ccccc1", "AC50": "11.2 µM [rising, partial curve]"}
{"smiles": "CCCN1CCN(CCCNC(=O)Cn2nc(-c3ccccc3)ccc2=O)CC1", "AC50": "20 µM [falling, partial curve]"}
{"smiles": "Cc1nn(Cc2ccc(Cl)cc2)c(C)c1NC(=O)CSc1nc2c(c(C(F)(F)F)n1)CCc1ccccc1-2", "AC50": "31.6 µM [rising, single point]"}
{"smiles": "COc1cc(NC(=S)NC(=O)c2cc(C)cc(C)c2)ccc1NC(=O)c1cccs1", "AC50": "5.62 µM [falling, single point]"}
{"smiles": "Cc1cccc(OCCC(=O)NCC(=O)Nc2c(C)cccc2C)c1", "AC50": "0.0316 µM [falling, full curve, poor fit]"}
{"smiles": "CCCCNC(=O)CCSc1nc(-c2ccc3c(c2)OCO3)cc(C(F)(F)F)n1", "AC50": "0.0316 µM [falling, full curve]"}
{"smiles": "O=C(NC1c2ccccc2-c2ccccc21)c1ccco1", "AC50": "0.0126 µM [rising, full curve, poor fit]"}
{"smiles": "Nc1c(S(=O)(=O)c2cc(Cl)ccc2Cl)c2nc3ccccc3nc2n1CCN1CCOCC1", "AC50": "20 µM [falling, single point]"}
{"smiles": "N#Cc1c(NC(=O)CSc2nc3c(c(C(F)(F)F)n2)CCc2ccccc2-3)sc2c1CCCC2", "AC50": "0.1 µM [rising, single point]"}
{"smiles": "CCC1CCc2c(sc(NC(=O)C3c4ccccc4Oc4ccccc43)c2C(=O)OC)C1", "note": "(stereo unspecified)", "AC50": "5.01 µM [rising, single point]"}
{"smiles": "CC(=O)N1CCc2cc(S(=O)(=O)NC(C(=O)NCc3ccccc3)C(C)C)ccc21", "note": "(stereo unspecified)", "AC50": "0.126 µM [falling, partial curve]"}
{"smiles": "CC(C)(C)c1ccc(/C([O-])=C(/C(=S)NCc2ccco2)[n+]2ccccc2)cc1", "AC50": "25.1 µM [rising, single point]"}
{"smiles": "COCCCNc1ncnc2sc3c(c12)CCC(C)C3", "note": "(stereo unspecified)", "AC50": "0.0251 µM [falling, single point]"}
{"smiles": "CC1Cc2ccccc2N1C(=O)CCNS(=O)(=O)c1cccc2nsnc12", "note": "(stereo unspecified)", "AC50": "10 µM [falling, partial curve, poor fit]"}
{"smiles": "NC(=O)C1CCN(Cc2nc3ccccc3c(=O)[nH]2)CC1", "AC50": "31.6 µM [falling, single point]"}
{"smiles": "Cc1cc(C)c(C#N)c(SCC(=O)N2CCN(Cc3ccccc3)CC2)n1", "AC50": "0.316 µM [falling, full curve]"}
{"smiles": "C=CCNC(=O)CSc1nnc(-c2ccncc2)n1CCc1ccccc1", "AC50": "0.0251 µM [rising, full curve, poor fit]"}
{"smiles": "CCCCCC(=O)NC(NC(=S)N1CCOCC1)C(Cl)(Cl)Cl", "note": "(stereo unspecified)", "AC50": "0.631 µM [falling, full curve]"}
{"smiles": "CCOc1ccc(N2C(=O)CC(/C=C3/N(C)c4ccccc4C3(C)C)C2=O)cc1", "note": "(stereo unspecified)", "AC50": "6.31 µM [falling, full curve, poor fit]"}
{"smiles": "COc1ccc(-c2cn3c(C)c(C(=O)NCCN4CCOCC4)sc3n2)cc1", "AC50": "0.631 µM [falling, single point]"}
{"smiles": "COc1ccc(-c2cc(C(F)(F)F)n3nc(C(=O)Nc4cccc(C(F)(F)F)c4)c(Br)c3n2)cc1", "AC50": "0.794 µM [falling, full curve, poor fit]"}
{"smiles": "CCN(Cc1ccccc1)C(c1ccncc1)c1nnnn1C(C)(C)C", "note": "(stereo unspecified)", "AC50": "0.0355 µM [rising, full curve]"}
{"smiles": "COc1ccc(CNC(=O)C2CCCN2S(=O)(=O)c2ccc(C)cc2)cc1", "note": "(stereo unspecified)", "AC50": "2.51 µM [falling, single point]"}
{"smiles": "CN1Cc2cc(C(=O)c3ccccc3O)cnc2NC1=O", "AC50": "0.02 µM [rising, full curve, poor fit]"}
{"smiles": "CSc1nc(-c2ccco2)nn1S(C)(=O)=O", "AC50": "5.62 µM [falling, single point]"}
{"smiles": "COCCNC(=O)C(c1cccs1)N(Cc1cccs1)C(=O)Cn1nnc2ccccc21", "note": "(stereo unspecified)", "AC50": "0.00501 µM [falling, full curve, poor fit]"}
{"smiles": "CC(C(=O)O)N1C(=O)CSC1=S", "note": "(stereo unspecified)", "AC50": "0.1 µM [falling, full curve, poor fit]"}
{"smiles": "COc1cc(C(=O)N/N=C\\c2ccccc2)c([N+](=O)[O-])c(OC)c1OC", "AC50": "35.5 µM [falling, single point]"}
{"smiles": "Nc1ccc2oc(=O)c3ccccc3c2c1", "AC50": "0.398 µM [falling, partial curve, poor fit]"}
{"smiles": "Cc1nc(-c2c(-c3ccc(O)cc3O)noc2C(F)(F)F)cs1", "AC50": "0.251 µM [rising, full curve]"}
{"smiles": "Cc1cc(C)cc(-n2ccnc2SCC(=O)Nc2ccc3c(c2)OCCO3)c1", "AC50": "31.6 µM [rising, single point]"}
{"smiles": "CS(=O)(=O)NCc1ccc(C(=O)NCc2ccccc2)cc1", "AC50": "2.24 µM [falling, single point]"}
{"smiles": "CC(C)C(=O)Nc1cccc(-c2nc3ccccc3c(=O)o2)c1", "AC50": "31.6 µM [falling, single point]"}
{"smiles": "CCCCn1c(NS(=O)(=O)c2ccc(C)cc2)c(S(=O)(=O)c2ccccc2)c2nc3ccccc3nc21", "AC50": "22.4 µM [rising, single point]"}
{"smiles": "COc1ccc(-n2c(COc3ccc(Cl)cc3)nnc2SCc2ccc(C#N)cc2)cc1", "AC50": "5.62 µM [falling, single point]"}
{"smiles": "COc1ccc(C(=O)N2CCN=C2SC)cc1OC", "AC50": "5.01 µM [rising, partial curve]"}
{"smiles": "Cc1cc(-c2ccc(Cl)cc2)c(C#N)c(N)n1", "AC50": "25.1 µM [rising, single point]"}
{"smiles": "O=C(c1ccc(C#CC2(O)CCCCC2)cc1)N1CCN(Cc2ccccc2)CC1", "AC50": "0.0158 µM [rising, partial curve, poor fit]"}
{"smiles": "CCC(Sc1nc(-c2ccccc2)c(C#N)c(=O)[nH]1)C(=O)Nc1cc(C)on1", "note": "(stereo unspecified)", "AC50": "15.8 µM [rising, partial curve]"}
{"smiles": "COc1ccc(-c2cc(C(F)F)n3ncc(C(=O)NCCCN4CCCC4=O)c3n2)cc1", "AC50": "0.794 µM [falling, full curve, poor fit]"}
{"smiles": "Cc1ccc(N(C(=O)CNC(=O)c2ccco2)C(C(=O)NC2CCCC2)c2cccnc2)cc1C", "note": "(stereo unspecified)", "AC50": "31.6 µM [rising, single point]"}
{"smiles": "O=C(CC(NCc1cccnc1)C(=O)O)Nc1ccc(F)cc1", "note": "(stereo unspecified)", "AC50": "0.158 µM [falling, full curve]"}
{"smiles": "CCOC(=O)N1CCN(C(=O)CSc2ncccn2)CC1", "AC50": "15.8 µM [falling, single point]"}
{"smiles": "COc1ccc(NC(=O)c2sccc2SCC#N)cc1", "AC50": "15.8 µM [falling, partial curve]"}
{"smiles": "Cn1c(SCc2cccc(C(F)(F)F)c2)nnc1-c1ccco1", "AC50": "0.0251 µM [rising, full curve, poor fit]"}
{"smiles": "Cc1ccc(C(=O)Nc2ccc(S(=O)(=O)N3CCN(C)CC3)cc2)cc1", "AC50": "20 µM [falling, partial curve, poor fit]"}
{"smiles": "O=C(CSc1ncnc2c1cnn2CCc1ccccc1)Nc1cccc(C(F)(F)F)c1", "AC50": "0.1 µM [falling, full curve, poor fit]"}
{"smiles": "Cc1ccc(C)c(-n2c(N)c(C#N)c3nc4ccccc4nc32)c1", "AC50": "17.8 µM [rising, single point]"}
{"smiles": "N#C/C(=C/c1ccc2c(c1)OCO2)C(=O)NCCc1c[nH]c2ccccc12", "AC50": "0.00631 µM [rising, full curve, poor fit]"}
{"smiles": "CCc1nnc(NC(=O)CSc2nnc(Cc3ccc(OC)cc3)o2)s1", "AC50": "0.1 µM [falling, full curve, poor fit]"}
{"smiles": "CC1CCN(CCCNC(=O)C2CC(=O)N(C3CCCCCC3)C2)CC1", "note": "(stereo unspecified)", "AC50": "5.01 µM [rising, single point]"}
{"smiles": "CCC(Oc1ccccc1)C(=O)N1CCC(C(N)=O)CC1", "note": "(stereo unspecified)", "AC50": "25.1 µM [rising, single point]"}
{"smiles": "Cc1ccc(-n2c(C)cn(C(=O)c3ccccc3)c2=S)cc1", "AC50": "0.794 µM [falling, full curve]"}
